US20060257938A1, “Method of screening for drugs that block ligand binding to a lipid binding protein” (priority 2005, published 2006)
Changes are numbered by the printed parent chain.

B1: 72T 73W 74G (protein, listed as Rattus norvegicus)
chain: AFDGTWKVDRNENYEKFMEKMGINVVKRKLGAHDNLKLTITQEGNKFTVKESSNFRNIDVVFELGVDFAYSTWGGTELTGTWTMEGNKLVGKFKRVDNGKELIAVREISGNELIQTYTYEGVEAKRIFKKE
modifications: PEPTIDE (1)...(131) wild-type rat intestinal fatty acid binding protein
B2: 38Y 74F 72A (protein, listed as Rattus norvegicus)
chain: B1 chain with L38Y, T72A, W73A, G74F
modifications: PEPTIDE (1)...(131) wild-type rat intestinal fatty acid binding protein
B3: 73W 74I (protein, listed as Rattus norvegicus)
chain: B1 chain with T72L, G74I
modifications: PEPTIDE (1)...(131) wild-type rat intestinal fatty acid binding protein
B4: 73W 74T (protein, listed as Rattus norvegicus)
chain: B1 chain with T72L, G74T
modifications: PEPTIDE (1)...(131) wild-type rat intestinal fatty acid binding protein
B5: 60T 104T 115W 74F 72A (protein, listed as Rattus norvegicus)
chain: B1 chain with V60T, T72A, W73A, G74F, A104T, Q115W
modifications: PEPTIDE (1)...(131) wild-type rat intestinal fatty acid binding protein
B6: 72V 73L 74W (protein, listed as Rattus norvegicus)
chain: B1 chain with T72V, W73L, G74W
modifications: PEPTIDE (1)...(131) wild-type rat intestinal fatty acid binding protein
B7: 72H 73P 74L (protein, listed as Rattus norvegicus)
chain: B1 chain with T72H, W73P, G74L
modifications: PEPTIDE (1)...(131) wild-type rat intestinal fatty acid binding protein
B8: 21F 78I 102F 72A (protein, listed as Rattus norvegicus)
chain: B1 chain with M21F, T72A, W73A, G74D, L78I, L102F
modifications: PEPTIDE (1)...(131) wild-type rat intestinal fatty acid binding protein
B9: 72G 73W 74E (protein, listed as Rattus norvegicus)
chain: B1 chain with T72G, G74E
modifications: PEPTIDE (1)...(131) wild-type rat intestinal fatty acid binding protein
B10: 72A 73W 74E (protein, listed as Rattus norvegicus)
chain: B1 chain with T72A, G74E
modifications: PEPTIDE (1)...(131) wild-type rat intestinal fatty acid binding protein
B11: 117C, 72A (protein, listed as Rattus norvegicus)
chain: B1 chain with T72A, W73A, G74D, Y117C
modifications: PEPTIDE (1)...(131) wild-type rat intestinal fatty acid binding protein
B12: 117D, 72A (protein, listed as Rattus norvegicus)
chain: B1 chain with T72A, W73A, G74D, Y117D
modifications: PEPTIDE (1)...(131) wild-type rat intestinal fatty acid binding protein
B13: 102C, 72A (protein, listed as Rattus norvegicus)
chain: B1 chain with T72A, W73A, G74D, L102C
modifications: PEPTIDE (1)...(131) wild-type rat intestinal fatty acid binding protein

Assay: Baseline fluorescence ratio Ro of probe in absence of analyte
Conditions: baseline fluorescence ratio of probe
B1 gave a Ro of 0.205. For B2, the Ro was 0.191. With B3 the Ro was 0.335. B4 showed a Ro of 0.368. Work on B5 yielded a Ro of 0.136. Work on B6 yielded a Ro of 0.248. Molecule B7 has a Ro of 0.933. B8 showed a Ro of 0.400. B9 gave a Ro of 0.576. Molecule B10 has a Ro of 0.503.

Same assay, conditions: baseline fluorescence ratio of probe, no fatty acid
B11 gave an AvgOfRo of 0.25. For B12, the AvgOfRo was 0.36 and the Ro was 0.389. For B13, the AvgOfRo was 0.24. B1 showed a Ro of 0.205. In the case of B2, the Ro is reported as 0.191. For B3, the Ro was 0.335. Work on B4 yielded a Ro of 0.368. For B6, the Ro was 0.248.
